Assay results from patent US20180371066A1.
No constants are given. Whether binding was seen depends on the method and setting. Some results given as binding are weak or reduced against the parent protein; the word gives no strength.

Sequences of proteins named here, by UniProt entry; tags and fusion partners are left off. A change or cut given only in a name is not applied to a line headed by its entry. A line that says so, or that is headed by a name, gives the form on record, which may keep a tag or linker. Residues count along the entry.
Tau 1-54 (P10636, residues 1-54): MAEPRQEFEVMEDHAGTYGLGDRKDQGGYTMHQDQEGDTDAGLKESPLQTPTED
variants of human tau that included the first 34 amino acids, expressed on yeast (P10636, residues 1-34): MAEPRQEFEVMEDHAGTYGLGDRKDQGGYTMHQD
tau in human CSF (P10636, form named): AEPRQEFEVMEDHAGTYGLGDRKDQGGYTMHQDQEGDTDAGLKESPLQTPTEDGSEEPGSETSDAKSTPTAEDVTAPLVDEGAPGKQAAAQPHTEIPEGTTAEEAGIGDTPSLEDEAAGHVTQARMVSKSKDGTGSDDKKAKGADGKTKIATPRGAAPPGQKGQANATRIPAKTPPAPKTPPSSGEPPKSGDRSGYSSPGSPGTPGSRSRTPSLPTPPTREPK
tau aggregates in brain tissue of human subjects with AD or PSP (P10636, form named): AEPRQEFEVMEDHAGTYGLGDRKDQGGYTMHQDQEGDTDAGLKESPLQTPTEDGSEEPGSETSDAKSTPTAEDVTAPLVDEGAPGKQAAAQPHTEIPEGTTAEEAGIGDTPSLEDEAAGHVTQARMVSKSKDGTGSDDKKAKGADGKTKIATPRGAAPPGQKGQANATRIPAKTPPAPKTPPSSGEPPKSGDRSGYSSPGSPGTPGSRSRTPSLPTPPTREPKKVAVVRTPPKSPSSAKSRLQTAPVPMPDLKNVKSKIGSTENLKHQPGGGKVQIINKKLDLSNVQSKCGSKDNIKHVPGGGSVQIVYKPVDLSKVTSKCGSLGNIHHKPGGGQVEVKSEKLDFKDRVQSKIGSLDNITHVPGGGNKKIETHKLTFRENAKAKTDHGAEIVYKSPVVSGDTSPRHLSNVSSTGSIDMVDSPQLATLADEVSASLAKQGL
Tau 25-135 (P10636, form named): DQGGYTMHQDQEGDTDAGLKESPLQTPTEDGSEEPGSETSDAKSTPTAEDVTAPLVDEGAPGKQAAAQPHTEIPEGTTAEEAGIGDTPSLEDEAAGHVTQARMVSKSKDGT

Assays:
tau in human CSF (human) = tau in human CSF (human) (UniProt P10636); experiment: sandwich ELISA, C2N-8E12 coated, biotinylated HJ8.7 detection, control human IgG4 wells as negative control
human tau (human) [1] = target: human tau (human) (UniProt P10636); experiment: sandwich ELISA: human tau at varied concentration captured by an anti-tau antibody of another epitope (r1), detected with the named antibody; OD 650nm against Log [Tau Conc. (ng/ml)]
human tau (human) [2] = target: human tau (human) (UniProt P10636); experiment: direct ELISA on 96-well plates coated with tau at varied concentration; OD 650nm against Log (Tau, ng/ml)
human tau (human) [3] = target: human tau (human) (UniProt P10636); experiment: ELISA on coated tau (legend of FIG. 10)
[4] = target: tau aggregates in brain tissue of human subjects with AD or PSP (human) (UniProt P10636); experiment: staining of brain tissue sections
human tau (human) [5] = target: human tau (human) (UniProt P10636); experiment: ELISA, 96 well plates coated with human tau at various concentrations
[6] = target: tau aggregates in brain tissue of human subjects with AD or PSP (human) (UniProt P10636); experiment: immunostaining of brain sections
[7] = target: Tau 25-135 (Homo sapiens) (UniProt P10636); experiment: yeast display of tau fragments, binding by immunofluorescence
Tau 1-54 (Homo sapiens) = Tau 1-54 (Homo sapiens) (UniProt P10636); experiment: as above
[8] = target: variants of human tau that included the first 34 amino acids, expressed on yeast (human) (UniProt P10636); experiment: yeast display, immunofluorescence

Measured: binding

B1: VH1/VK2 humanized anti-tau antibody (C2N-8E12) (antibody, human IgG4 S228P, kappa, V domains shown)
VH: EVKVVESGGGLVQPGGSMKLSCVVSGFTFSNYWVNWVRQAPGKGLEWVAQIRLKSDNYATHYEESVKGRFTISRDDSKSSVYLQMNNLRAEDSGIYYCTNWEDYWGQGTTVTVSS
VL: DIVLTQSPDSLAVSLGERATISCRASQSVSTSRYSYIHWYQQKPGQPPKLLIKYASNLESGVPSRFSGSGSGTDFTLNIHPLEPEDFATYYCHHSWEIPLTFGQGTKLEIKR
binds: tau in human CSF (human) | human tau (human) [1] | human tau (human) [2] | human tau (human) [3] | [4] | human tau (human) [5]

B2: murine anti-tau antibody HJ8.5 (antibody, V domains shown)
VH: EVKVEESGGGLVQPGGSMKLSCVVSGFTFSNYWVNWVRQSPEKGLEWVAQIRLKSDNYATHYEESVKGRFTISRDDSKSSVYLQMNNLRAEDSGIYYCTNWEDYWGQGTTLTVSS
VL: DIVLTQSPASLAVSLGQRATISCRASQSVSTSRYSYIHWYQQKPGQPPKLLIKYASNLESGVPARFSGSGSGTDFTLNIHPLEEEDAATYYCHHSWEIPLTFGAGTKLELK
not listed: tau in human CSF (human) | human tau (human) [1] | [4]
binds: all other assays above

B3: chimeric HJ8.5 monoclonal antibody (antibody, V domains shown)
VH: EVKVEESGGGLVQPGGSMKLSCVVSGFTFSNYWVNWVRQSPEKGLEWVAQIRLKSDNYATHYEESVKGRFTISRDDSKSSVYLQMNNLRAEDSGIYYCTNWEDYWGQGTTLTVSS
VL: DIVLTQSPASLAVSLGQRATISCRASQSVSTSRYSYIHWYQQKPGQPPKLLIKYASNLESGVPARFSGSGSGTDFTLNIHPLEEEDAATYYCHHSWEIPLTFGAGTKLELK
binds: human tau (human) [1] | [6] | [4]

B4: VH1/VK1 (antibody, human IgG4 S228P, kappa, V domains shown)
VH: EVKVVESGGGLVQPGGSMKLSCVVSGFTFSNYWVNWVRQAPGKGLEWVAQIRLKSDNYATHYEESVKGRFTISRDDSKSSVYLQMNNLRAEDSGIYYCTNWEDYWGQGTTVTVSS
VL: DIVLTQSPDSLAVSLGERATISCRASQSVSTSRYSYIHWYQQKPGQPPKLLIKYASNLESGVPSRFSGSGSGTDFTLNIHPLEEEDFATYYCHHSWEIPLTFGQGTKLEIKR
binds: human tau (human) [1]

B5: VH2/VK2 humanized anti-tau antibody (antibody, human IgG4 S228P, kappa, V domains shown)
VH: EVKVVESGGGLVQPGGSLKLSCVVSGFTFSNYWVNWVRQAPGKGLEWVAQIRLKSDNYATHYEESVKGRFTISRDDSKSSVYLQMNSLRAEDTGIYYCTNWEDYWGQGTTVTVSS
VL: DIVLTQSPDSLAVSLGERATISCRASQSVSTSRYSYIHWYQQKPGQPPKLLIKYASNLESGVPSRFSGSGSGTDFTLNIHPLEPEDFATYYCHHSWEIPLTFGQGTKLEIKR
binds: human tau (human) [1] | [4]

B6: VH4/VK3 (antibody, human IgG4 S228P, kappa, V domains shown)
VH: EVQLVESGGGLVQPGGSLKLSCVVSGFTFSNYWVNWVRQAPGKGLEWVAQIRLKSDNYATHYEESVKGRFTISRDDSKNSLYLQMNSLRAEDTAIYYCTNWEDYWGQGTTVTVSS
VL: DIVLTQSPDSLAVSLGERATISCRASQSVSTSRYSYIHWYQQKPGQPPKLLIKYASNLESGVPSRFSGSGSGTDFTLTISSLQPEDFATYYCHHSWEIPLTFGQGTKLEIKR
binds: human tau (human) [1]

B7: VH3/VK2 humanized anti-tau antibody (antibody, human IgG4 S228P, kappa, V domains shown)
VH: EVQVVESGGGLVQPGGSLKLSCVVSGFTFSNYWVNWVRQAPGKGLEWVAQIRLKSDNYATHYEESVKGRFTISRDDSKNSVYLQMNSLRAEDTAIYYCTNWEDYWGQGTTVTVSS
VL: DIVLTQSPDSLAVSLGERATISCRASQSVSTSRYSYIHWYQQKPGQPPKLLIKYASNLESGVPSRFSGSGSGTDFTLNIHPLEPEDFATYYCHHSWEIPLTFGQGTKLEIKR
binds: [4]
